Measurements from patent publication US20250060359A1, “FUSION PROTEINS AND METHODS FOR MONITORING FIBRONECTIN MATRIX ASSEMBLY” (The Trustees of Princeton University, priority 2023, published 2025).
No constants are given. Whether binding was seen depends on the method and setting. Some binding calls cover weakened binding; strength is not graded here.

The chains behind the UniProt entries cited, without tags or fusion partners. Residues count along the entry.
UniProt P11276, residues 33-2477: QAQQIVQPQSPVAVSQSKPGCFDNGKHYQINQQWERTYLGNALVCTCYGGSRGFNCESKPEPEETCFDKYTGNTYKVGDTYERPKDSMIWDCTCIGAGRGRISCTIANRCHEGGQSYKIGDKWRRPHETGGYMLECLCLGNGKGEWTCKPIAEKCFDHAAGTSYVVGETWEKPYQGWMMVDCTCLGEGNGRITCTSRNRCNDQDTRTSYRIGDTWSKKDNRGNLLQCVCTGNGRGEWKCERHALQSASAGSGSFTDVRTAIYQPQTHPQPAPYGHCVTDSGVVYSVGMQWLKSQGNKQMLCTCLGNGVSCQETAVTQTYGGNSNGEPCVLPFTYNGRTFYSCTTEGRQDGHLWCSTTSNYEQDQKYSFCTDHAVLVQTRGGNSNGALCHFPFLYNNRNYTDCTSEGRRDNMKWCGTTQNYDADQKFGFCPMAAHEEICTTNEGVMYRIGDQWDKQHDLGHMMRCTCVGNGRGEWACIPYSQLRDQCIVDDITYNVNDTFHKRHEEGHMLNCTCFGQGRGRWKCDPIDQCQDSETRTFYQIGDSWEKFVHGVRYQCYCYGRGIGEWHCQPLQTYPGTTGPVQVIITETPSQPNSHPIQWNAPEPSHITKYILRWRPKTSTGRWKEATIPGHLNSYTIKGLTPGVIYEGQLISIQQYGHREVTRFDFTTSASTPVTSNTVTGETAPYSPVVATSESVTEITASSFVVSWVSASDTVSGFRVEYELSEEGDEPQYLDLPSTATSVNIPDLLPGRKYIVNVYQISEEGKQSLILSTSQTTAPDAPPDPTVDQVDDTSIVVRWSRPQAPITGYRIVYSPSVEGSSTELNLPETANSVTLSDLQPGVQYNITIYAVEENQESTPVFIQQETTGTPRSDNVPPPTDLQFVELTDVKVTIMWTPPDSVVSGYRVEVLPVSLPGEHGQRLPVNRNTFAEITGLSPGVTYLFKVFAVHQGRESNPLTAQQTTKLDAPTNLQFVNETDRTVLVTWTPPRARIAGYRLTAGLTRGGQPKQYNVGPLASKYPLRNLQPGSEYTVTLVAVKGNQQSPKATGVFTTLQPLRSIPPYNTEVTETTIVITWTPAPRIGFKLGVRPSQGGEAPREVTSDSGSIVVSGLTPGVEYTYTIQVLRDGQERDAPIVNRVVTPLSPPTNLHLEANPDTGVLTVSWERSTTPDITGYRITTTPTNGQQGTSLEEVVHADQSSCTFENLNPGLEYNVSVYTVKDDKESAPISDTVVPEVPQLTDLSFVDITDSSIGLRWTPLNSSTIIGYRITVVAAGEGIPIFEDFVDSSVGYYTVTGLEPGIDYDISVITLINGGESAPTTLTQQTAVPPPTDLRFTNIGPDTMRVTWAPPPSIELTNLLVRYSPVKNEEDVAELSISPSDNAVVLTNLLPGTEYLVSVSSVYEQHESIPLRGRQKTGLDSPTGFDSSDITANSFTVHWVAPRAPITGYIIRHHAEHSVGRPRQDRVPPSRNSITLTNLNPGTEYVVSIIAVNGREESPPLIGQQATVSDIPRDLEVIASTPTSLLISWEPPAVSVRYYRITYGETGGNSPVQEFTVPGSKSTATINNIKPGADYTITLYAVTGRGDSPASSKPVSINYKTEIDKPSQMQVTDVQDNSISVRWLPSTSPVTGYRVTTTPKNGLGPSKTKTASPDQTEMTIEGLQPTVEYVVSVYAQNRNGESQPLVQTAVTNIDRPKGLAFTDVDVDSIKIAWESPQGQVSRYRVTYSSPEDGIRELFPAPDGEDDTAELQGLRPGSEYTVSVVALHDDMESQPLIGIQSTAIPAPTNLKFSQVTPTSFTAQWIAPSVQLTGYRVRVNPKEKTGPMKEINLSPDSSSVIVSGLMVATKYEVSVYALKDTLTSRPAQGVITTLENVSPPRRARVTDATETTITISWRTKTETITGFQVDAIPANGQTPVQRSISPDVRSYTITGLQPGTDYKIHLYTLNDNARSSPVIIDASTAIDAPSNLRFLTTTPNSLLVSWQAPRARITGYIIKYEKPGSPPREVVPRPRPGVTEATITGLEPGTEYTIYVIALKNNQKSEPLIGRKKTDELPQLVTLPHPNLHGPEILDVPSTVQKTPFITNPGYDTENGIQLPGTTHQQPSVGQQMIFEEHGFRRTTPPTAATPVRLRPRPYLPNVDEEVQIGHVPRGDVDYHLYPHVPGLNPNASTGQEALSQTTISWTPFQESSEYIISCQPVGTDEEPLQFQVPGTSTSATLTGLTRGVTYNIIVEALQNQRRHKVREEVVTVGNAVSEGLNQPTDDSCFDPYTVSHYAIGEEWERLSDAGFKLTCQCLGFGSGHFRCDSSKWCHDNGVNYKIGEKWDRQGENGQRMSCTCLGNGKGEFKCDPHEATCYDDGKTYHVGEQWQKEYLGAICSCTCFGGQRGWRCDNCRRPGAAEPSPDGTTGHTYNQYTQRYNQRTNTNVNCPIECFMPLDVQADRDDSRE
UniProt P02751, residues 32-608: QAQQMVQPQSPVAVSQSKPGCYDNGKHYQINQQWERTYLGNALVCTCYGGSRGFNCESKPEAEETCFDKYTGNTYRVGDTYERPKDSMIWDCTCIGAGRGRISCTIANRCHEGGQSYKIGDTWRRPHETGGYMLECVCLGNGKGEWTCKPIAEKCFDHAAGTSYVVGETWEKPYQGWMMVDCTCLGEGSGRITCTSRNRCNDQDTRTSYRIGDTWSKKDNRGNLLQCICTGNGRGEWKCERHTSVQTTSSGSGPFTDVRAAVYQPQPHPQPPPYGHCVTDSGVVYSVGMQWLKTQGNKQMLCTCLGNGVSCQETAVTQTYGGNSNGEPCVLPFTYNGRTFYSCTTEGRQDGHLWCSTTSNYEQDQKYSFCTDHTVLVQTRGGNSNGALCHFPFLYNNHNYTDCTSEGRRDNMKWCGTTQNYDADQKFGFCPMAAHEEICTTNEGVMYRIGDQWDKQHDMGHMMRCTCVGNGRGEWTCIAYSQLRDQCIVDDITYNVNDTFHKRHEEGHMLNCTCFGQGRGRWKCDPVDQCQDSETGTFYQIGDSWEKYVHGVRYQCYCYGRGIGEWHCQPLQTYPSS

Assays:
[1] = substrate: FN matrix (fibronectin fibrils) assembled by NIH 3T3 fibroblasts (UniProt P11276); assay: phage incubated with fibroblasts as they assembled fibrils
[2] = biological target: Recombinant human 70kD protein (N-terminal 70kD fragment of fibronectin) (human) (UniProt P02751); assay: phage ELISA on 70kD-coated plastic; + is mean signal higher than 3x negative control
[3] = substrate: FN matrix (fibronectin fibrils) assembled by NIH 3T3 fibroblasts (UniProt P11276); assay: high concentration phage stock incubated with fibroblast monolayers, co-stained for phage and FN
[4] = substrate: FN matrix (fibronectin fibrils) assembled by NIH 3T3 fibroblasts (UniProt P11276); assay: phage and FN immunofluorescence on fibroblast monolayers (Matrix Binding column)
[5] = substrate: FN matrix (fibronectin fibrils) assembled by NIH 3T3 fibroblasts (UniProt P11276); assay: phage incubated with NIH 3T3 fibroblasts, stained for FN and phage (FIGS. 4A-4C)
[6] = substrate: FN matrix (fibronectin fibrils) assembled by NIH 3T3 fibroblasts (UniProt P11276); assay: fixed confluent NIH 3T3 fibroblasts incubated with phage, co-stained for M13 phage and FN
[7] = substrate: FN matrix (fibronectin fibrils) assembled by NIH 3T3 fibroblasts (UniProt P11276); assay: phage characterization on FN matrix

Binder | binding [2] | further results
DYSYFDLWYSDT (peptide, not shown: large carriers) [M13 phage clone 12 (12, 29) displaying …] | binds | binding [1]: binds; binding [3]: binds; binding [4]: binds
DHVSLSGRSAAM (peptide, not shown: large carriers) [M13 phage clone 11 displaying …] | binds | –
SITEFNLLPGLW (peptide, not shown: large carriers) [M13 phage clone 6 (6, 35) displaying …] | binds | –
NHVALWGTGTAS (peptide, not shown: large carriers) [M13 phage clone 3 (3, 5, 27, 28) displaying … (S3)] | binds | –
SDITPWWLLAQD (peptide, not shown: large carriers) [M13 phage clone 20 (20, 21, 46) displaying … (S20)] | binds | –
HHIALSGSNSFG (peptide, not shown: large carriers) [M13 phage clone 14 displaying …] | binds | –
WHVALTGNNLER (peptide, not shown: large carriers) [M13 phage clone 37 displaying …] | binds | –
HPTDWMNLPALS (peptide, not shown: large carriers) [M13 phage clone 36 displaying …] | binds | –
HNQTMWWTFPST (peptide, not shown: large carriers) [M13 phage clone 4 (4, 44) displaying …] | binds | –
HQTYWMNLPGSY (peptide, not shown: large carriers) [M13 phage clone 15 (15, 18) displaying …] | binds | –
AHBRLSGSAPMF (peptide, not shown: large carriers) [M13 phage clone 7 (7, 22, 38) displaying AHB…] | binds | –
DHSALRGTWTNR (peptide, not shown: large carriers) [M13 phage clone 17 displaying …] | binds | –
HITNWLSLSSYE (peptide, not shown: large carriers) [M13 phage clone 8 displaying …] | binds | –
VSGYNVMPLNGD (peptide, not shown: large carriers) [M13 phage clone 1 displaying …] | binds | –
GSYDWTKLPGLE (peptide, not shown: large carriers) [M13 phage clone 2 (2, 16, 31, 48) displaying … (S2)] | binds | binding [5]: binds; binding [1]: binds; binding [6]: binds; binding [7]: binds; binding [3]: binds; binding [4]: binds
LETDWRSLSHMS (peptide, not shown: large carriers) [M13 phage clone 26 displaying …] | binds | –
DHIPLRGQRVWQ (peptide, not shown: large carriers) [M13 phage clone 19 (19, 24, 32, 41, 45) displaying …] | binds | –
NHVPLSGFSRTP (peptide, not shown: large carriers) [M13 phage clone 47 displaying …] | binds | –
YVTNWGSLSGSY (peptide, not shown: large carriers) [M13 phage clone 23 displaying …] | binds | –
DHIQLSGASYFN (peptide, not shown: large carriers) [M13 phage clone 13 (13, 30, 40) displaying …] | binds | –
YSTTMWQYLPGA (peptide, not shown: large carriers) [M13 phage clone 39 displaying …] | binds | binding [1]: binds; binding [4]: binds
HWSGTHALSGRA (peptide, not shown: large carriers) [M13 phage clone 9 (9, 42) displaying …] | binds | –
DHIDVMGFTVFK (peptide, not shown: large carriers) [M13 phage clone 34 displaying …] | binds | –
